Results taken from patent US20190185550A1 (HEFEI LIFEON PHARMACEUTICAL, published 2019).
No constants are given. Whether binding was seen depends on the method and setting. Some binding calls cover weakened binding; strength is not graded here. Where a sequence is shown, tags or fusion partners need not be part of it.

Amino acid sequences for entries named in this document (tags omitted). A change or cut given only in a name is not applied to a line headed by its entry. Chains listed by the source or under a name are the forms on record and can include a tag or linker.
FN(7B89), recombinant fibronectin fragment of domains 7, ED-B, 8 and 9 with 6xHis tags (P02751, form named): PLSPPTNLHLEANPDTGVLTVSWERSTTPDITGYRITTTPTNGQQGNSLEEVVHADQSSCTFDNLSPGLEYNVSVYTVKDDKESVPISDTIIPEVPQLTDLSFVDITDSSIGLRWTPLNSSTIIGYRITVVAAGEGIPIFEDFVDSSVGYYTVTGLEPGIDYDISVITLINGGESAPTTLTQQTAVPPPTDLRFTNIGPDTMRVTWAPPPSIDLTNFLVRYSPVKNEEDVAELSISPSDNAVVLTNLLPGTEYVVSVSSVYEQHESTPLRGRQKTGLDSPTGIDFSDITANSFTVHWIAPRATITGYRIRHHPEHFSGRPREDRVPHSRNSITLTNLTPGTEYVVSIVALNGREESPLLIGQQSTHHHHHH

What was measured:
[1] = biological target: FN(7B89), recombinant fibronectin fragment of domains 7, ED-B, 8 and 9 with 6xHis tags (human) (UniProt P02751); experiment: ELISA, coated antigen, anti-human IgG-HRP
[2] = biological target: FN(7B89), recombinant fibronectin fragment of domains 7, ED-B, 8 and 9 with 6xHis tags (human) (UniProt P02751); experiment: ELISA on coated antigen, antibody B5 as primary antibody, HRP-labeled rabbit anti-human IgG as secondary antibody, OD450
[3] = biological target: FN(7B89), recombinant fibronectin fragment of domains 7, ED-B, 8 and 9 with 6xHis tags (human) (UniProt P02751); experiment: ELISA on coated FN(7B89) after incubation of B5-IgG1Fc in Balb/c mouse plasma at 37 C, HRP-labeled rabbit anti-human IgG as secondary antibody, OD450 given relative to the 0 hr standard

Measured: binding

B1: antibody B5 (humanized single-chain antibody against the ED-B domain, expressed as a fusion with the Fc of human IgG1) (Fc fusion)
scFv: EVQLLESGGGLVQPGGSLRLSCAASGFTFSSYAMSWVRQAPGKGLEWVSRISPSGSSTYYADSVKGRFTISRDNSKNTLYLQMNSLRAEDTAVYYCARHTAPLFDYWGQGTLVTVSSGGGGSGGGGSGGGGSSEIVLTQSPGTLSLSPGERATLSCRASQSVSSSYLAWYQQKPGQAPRLLIYKASNLATGIPDRFSGSGSGTDFTLTISRLEPEDFAVYYCQQGRHTPPTFGQGTKVEIK
notes: also called B5-IgG1Fc; single-chain antibody B5; not shown: Fc fragment of the constant region of human IgG1, fused in frame after the scFv (pCI-neo vector); limits and junction no
binds: all assays above
